Results are given in words; binding and its absence hold for the method and conditions named. In cells and extracts the contact can be indirect. Here binding means that the protein was enriched with, or labelled near, the bait; the list need not be complete. Where a sequence is shown, tags or fusion partners need not be part of it.

The assay addresses T1, FLAG-SREBF1(N), N-terminus of mouse SREBF1, expressed in 3T3-L1–TetON-FLAG-Srebf1(N) adipocytes (mouse) (UniProt Q9WTN3).
T1 sequence: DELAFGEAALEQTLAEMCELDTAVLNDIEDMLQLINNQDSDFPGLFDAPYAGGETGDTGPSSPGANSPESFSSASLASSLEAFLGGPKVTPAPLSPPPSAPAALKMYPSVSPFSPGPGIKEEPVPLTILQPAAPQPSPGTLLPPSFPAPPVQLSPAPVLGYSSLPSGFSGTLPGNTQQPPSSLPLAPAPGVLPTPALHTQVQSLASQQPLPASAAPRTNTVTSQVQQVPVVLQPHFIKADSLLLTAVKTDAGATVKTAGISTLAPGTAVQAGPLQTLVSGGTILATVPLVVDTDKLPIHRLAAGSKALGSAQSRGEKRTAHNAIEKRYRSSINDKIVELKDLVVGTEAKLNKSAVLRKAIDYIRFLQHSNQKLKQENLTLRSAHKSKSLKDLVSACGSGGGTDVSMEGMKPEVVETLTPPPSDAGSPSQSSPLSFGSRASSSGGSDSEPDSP
As to the kind of experiment: affinity purification with mass spectrometry; FLAG-tagged bait immunoprecipitated with anti-FLAG M2 Affinity Gel from dialysed nuclear extracts (150 mM KCl, 0.05% NP40) of differentiated 3T3-L1 TetON cells treated with 10 μg/mL doxycycline; eluted with FLAG peptide; LC-MS/MS.

B1: ARMC5, endogenous in 3T3-L1 adipocytes (protein, UniProt Q5EBP3 1-926)
chain: MAAARPALTDSLSFCLAQLTAAAGEGPGGGKDPATNETPLGRALLALRTRHIKAAEGIERFRARGGLRPLLALLRRTAAAGPAPSQAASGSAPSSVASAGSTPGHAPAAESLLTPSLPMRLRKTLDLALSILANCCTEGACRAEVRRLGGILPLVTILQCVKTDSIQNRTARALGNLAMEPESCRDIHSAGAVPFLVESLTACQDSQCLQSIVRALRNLADSPQHRLALAQQGAVRPLAELLATAPDPALTAALVRALLELSRGCSRACAEQLSLGGALGPLVSLASHPKRAIREAAILILANLCAQGLVRPALGNAGGVEVLLGELRRRRSPGGSSSATQQPLVRAVCLLCREAINRARLRDAGGLELLMGLLQDPGASAWHPRVVAALVGFLYDTGALGKLQALGLVPLLARQLCGEAGEEEEEGIEAASWDFPEERTSGQAEGGSFRSLRLWLISEGYAAGPGDISPDWSPERCPMPEPSESVSPTPGQTSMSTPRTLRKPGRIPAATPEEPWGQEGPALLLLSRFSQAPDPSGALVTGPALCGLLAYVTGAPGPPNPRALRILARLTCNPACLEAFVRTYGAALLRAWLVLGVSPDDWPVPHARPVHRSQHRELGEMLLQNLTVQAESPFGVGALTHLLLSGSPEDRVACALTLPFICRKPTLWRRLLLDQGGLRLLLTALTQPAPHPLFLFFAADSLSCLQGLVSPTASPVPLPALPLELDSPPPCLYEPLLGPAPAPAPDLHFVLDSGLQLPAQRAASAAASPFFRALLSGSFAEAQMDLVPLRGLSPGAAWPVLHHLHGCRGCGAALGPVPPPGQPLLGSKAEEALEAAGRFLLPALEEELEEAVGRIHLSPRGGPESVGEVFRLGRPRLAAHCARWTLEPGQCPRKRALALTGLVEAAGEEAGPLTEALLAVVMGIES
As to B1, the binding entry was “binds”.

The values are drawn from article PMC9462479.
